# Reference: patent US11013249B2, “Compositions for controlled release of volatile compounds” (University of Guelph, priority 2016, dated 2021)
# System: mung bean sprouts
# Assay: Mung bean sprouts sealed in 1 L glass jars with antimicrobial compounds at 4° C.
# Set-up: species or system Mung bean (Vigna radiata)
# Settings: low concentration: AITC <1.5 mg/L, diacetyl <8 mg/L
structure (smiles),measurement,value
"C=CCN=C=S [AITC, Allyl isothiocyanate]",respiration rates of the sprouts,higher than the untreated control
